Here are results for eleven compounds from patent US9018213B2, “Alicyclic[c] benzopyrone derivatives and uses thereof” (Huazhong University of Science & Technology, priority 2011, dated 2015).

The structures appear in SMILES notation. Where “and” joins values, the source holds several entries; their conditions need not be identical. Equal entries are not always repeated. Where only a bound is given, the exact number is not on record here.

The data set has as its system KM mice. Kind of data set: Catalepsy assay. To be noted: ratio of ED50 values.
Consider `O=c1oc2cc(OCCCN3CCC(c4noc5cc(F)ccc45)CC3)ccc2c2c1CCC2` [Compound 5, 7-{3-[4-(3-(6-fluoro-benzisoxazole)-1-piperidyl)-n-propoxy]}-2,3-dihydro-1H-cyclopenteno[c]benzopyran-4-one], for which the “catalepsy/MK-801 induced high activity” value worked out at 480.91 and the catalepsy/apomorphine induced clambering is reported as 247.53.
In the same order, the values of `COc1ccccc1N1CCN(CCCCOc2ccc3c4c(c(=O)oc3c2)CCC4)CC1` [Compound 7, 7-{4-[4-(2-methoxyphenyl)piperazin-1-yl]-butoxy}-2,3-dihydro-1H-cyclopenteno[c]benzopyran-4-one] are 127.56 and 2011.46.
In the same order, the values of `O=c1oc2c(Cl)c(OCCCCN3CCN(c4nsc5ccccc45)CC3)ccc2c2c1CCC2` [Compound 14, 7-{4-[4-(3-(1,2-benzisothiazole)-1-piperazinyl)-n-butoxy]}-6-chloro-2,3-dihydro-1H-cyclopenteno[c]benzopyran-4-one] are 230.79 and 757.
Consider `O=c1oc2c(Cl)c(OCCCCN3CCC(c4noc5cc(F)ccc45)CC3)ccc2c2c1CCC2` [Compound 15, 7-{4-[4-(3-(6-fluoro-benzisoxazole)-1-piperidyl)-butoxy]}-6-chloro-2,3-dihydro-1H-cyclopenteno[c]benzopyran-4-one], for which the “catalepsy/MK-801 induced high activity” value is reported as 79.09 and the catalepsy/apomorphine induced clambering worked out at 176.54.
Take `COc1ccccc1N1CCN(CCCCOc2ccc3c4c(c(=O)oc3c2)CCCC4)CC1` [Compound 19, 3-{4-[4-(2-methoxyphenyl)piperazin-1-yl]-butoxy}-7,8,9,10-tetrahydrobenzo[c]benzopyran-6-one]: the “catalepsy/MK-801 induced high activity” value is 66.53 and the catalepsy/apomorphine induced clambering worked out at 1042.33.
In the same order, the values of `O=C1CCc2ccc(OCCCCN3CCN(c4cccc(Cl)c4Cl)CC3)cc2N1` [aripiprazole] are 20.00 and 11.43.
For `CN1CCN(C2=Nc3cc(Cl)ccc3Nc3ccccc32)CC1` [clozapine], the “catalepsy/MK-801 induced high activity” value was >21.93 and 21.93; the catalepsy/apomorphine induced clambering is above 5.58.
Take `O=C(CCCN1CCC(O)(c2ccc(Cl)cc2)CC1)c1ccc(F)cc1` [haloperidol]: the “catalepsy/MK-801 induced high activity” value is 4.40 and the catalepsy/apomorphine induced clambering is given as 4.89.
On to `Cc1cc2c(s1)Nc1ccccc1N=C2N1CCN(C)CC1` [olanzapine], for which the catalepsy/apomorphine induced clambering was found to be 20.27.
As to `OCCOCCN1CCN(C2=Nc3ccccc3Sc3ccccc32)CC1` [quetiapine], the “catalepsy/MK-801 induced high activity” value came out at 79.21 and the catalepsy/apomorphine induced clambering stood at 396.04.
Take `O=C1Cc2cc(CCN3CCN(c4nsc5ccccc45)CC3)c(Cl)cc2N1` [ziprasidone]: the “catalepsy/MK-801 induced high activity” value is 54.29 and the catalepsy/apomorphine induced clambering is recorded as 82.16.
